# Measurements published in patent EP4789728A2 (Serpin Pharma, LLC, dated 2026).
# Chains of the proteins cited; added tags and fusions are not shown. Residues count along the entry.
# UniProt Q07954, residues 805-1184: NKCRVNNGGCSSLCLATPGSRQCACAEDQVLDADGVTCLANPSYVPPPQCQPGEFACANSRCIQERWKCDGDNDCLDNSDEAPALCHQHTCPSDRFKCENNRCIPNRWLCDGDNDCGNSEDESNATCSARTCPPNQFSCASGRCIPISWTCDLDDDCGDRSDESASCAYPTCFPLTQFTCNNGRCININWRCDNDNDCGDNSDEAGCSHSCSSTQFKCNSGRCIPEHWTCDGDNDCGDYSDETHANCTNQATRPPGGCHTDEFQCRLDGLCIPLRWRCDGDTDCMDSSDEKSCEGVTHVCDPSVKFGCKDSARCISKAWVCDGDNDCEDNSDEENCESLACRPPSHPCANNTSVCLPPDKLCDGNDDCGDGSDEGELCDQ
# These are yes or no findings as the source states them, for the method shown. Some entries that bind do so weakly or less than the wild type.
# B1: SP16 (AAT Core) (peptide)
# peptide: VKFNKPFVFLMIEQNTK
# modifications: biotinylated in the ELISA of Example 2 (site of biotin not stated)
# Target: Recombinant LRP1 (Cluster II) (UniProt Q07954)
# Experiment: ELISA, plate-bound recombinant LRP1 (Cluster II), biotinylated peptide, streptavidin HRP
binder,measurement,value
B1,binding,binds
